Results are given in words; binding and its absence hold for the method and conditions named. Binding seen in cells or lysates may run through a third protein. Some entries that bind do so weakly or less than the wild type.
Key:
[1] = target: T1, RIPK1 (mouse (endogenous in primary astrocytes)) (UniProt Q60855); assay: co-IP; anti-RIPK1 antibody on whole cell lysates (RIPA) of OTUD7B-sufficient and -deficient primary mouse astrocytes, GammaBind G Sepharose, 4 °C overnight, Western blot; TNF 20 ng/mL for up to 5 days (Fig. 7D) or 10, 20, 50 ng/mL for 5 days (Fig. 7H)
T1 sequence: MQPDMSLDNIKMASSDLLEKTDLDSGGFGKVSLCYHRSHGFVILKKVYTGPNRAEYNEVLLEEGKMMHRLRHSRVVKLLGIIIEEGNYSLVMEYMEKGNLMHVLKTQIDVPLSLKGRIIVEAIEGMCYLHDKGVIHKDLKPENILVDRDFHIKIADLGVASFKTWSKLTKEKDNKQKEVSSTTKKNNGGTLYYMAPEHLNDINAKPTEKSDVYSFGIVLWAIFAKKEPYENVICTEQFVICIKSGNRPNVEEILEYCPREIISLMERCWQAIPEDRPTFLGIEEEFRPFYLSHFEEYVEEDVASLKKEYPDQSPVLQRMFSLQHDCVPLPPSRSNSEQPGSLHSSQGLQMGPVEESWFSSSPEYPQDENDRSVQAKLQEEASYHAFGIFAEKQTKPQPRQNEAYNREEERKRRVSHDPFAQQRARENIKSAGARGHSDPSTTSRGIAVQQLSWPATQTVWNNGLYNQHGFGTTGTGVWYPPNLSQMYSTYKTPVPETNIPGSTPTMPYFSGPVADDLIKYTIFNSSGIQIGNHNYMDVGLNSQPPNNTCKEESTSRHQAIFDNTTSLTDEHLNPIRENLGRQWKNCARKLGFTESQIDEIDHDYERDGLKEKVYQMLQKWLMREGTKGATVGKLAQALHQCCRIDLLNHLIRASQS

Protein sequences, listed by entry. Tags and fused reporters are not part of them.
UniProt P03995: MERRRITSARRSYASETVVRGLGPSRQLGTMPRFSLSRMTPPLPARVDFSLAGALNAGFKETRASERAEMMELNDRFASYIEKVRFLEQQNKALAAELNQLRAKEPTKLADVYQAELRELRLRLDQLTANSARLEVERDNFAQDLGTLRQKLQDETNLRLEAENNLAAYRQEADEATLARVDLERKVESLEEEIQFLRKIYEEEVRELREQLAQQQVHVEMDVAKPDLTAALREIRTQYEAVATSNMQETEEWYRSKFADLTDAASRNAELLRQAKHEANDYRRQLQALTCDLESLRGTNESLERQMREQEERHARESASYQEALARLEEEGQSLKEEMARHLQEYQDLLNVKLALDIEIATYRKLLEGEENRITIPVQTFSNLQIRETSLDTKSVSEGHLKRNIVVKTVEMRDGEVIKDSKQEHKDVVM

[2] = target: glial fibrillary acidic protein (GFAP) (mouse (endogenous in primary astrocytes)) (UniProt P03995); assay: co-IP; anti-GFAP antibody on total protein lysates (RIPA) of primary mouse astrocytes stimulated with 50 ng/mL TNF for the indicated times, GammaBind G Sepharose, Western blot for GFAP, OTUD7B and K48 ubiquitin chains (Fig. 8F)

Row | Binder | binding [1] | binding [2]
1 | TRAF2 (protein, UniProt P39429 1-501) MAAASVTSPGSLELLQPGFSKTLLGTRLEAKYLCSACKNILRRPFQAQCGHRYCSFCLTSILSSGPQNCAACVYEGLYEEGISILESSSAFPDNAARREVESLPAVCPNDGCTWKGTLKEYESCHEGLCPFLLTECPACKGLVRLSEKEHHTEQECPKRSLSCQHCRAPCSHVDLEVHYEVCPKFPLTCDGCGKKKIPRETFQDHVRACSKCRVLCRFHTVGCSEMVETENLQDHELQRLREHLALLLSSFLEAQASPGTLNQVGPELLQRCQILEQKIATFENIVCVLNREVERVAVTAEACSRQHRLDQDKIEALSNKVQQLERSIGLKDLAMADLEQKVSELEVSTYDGVFIWKISDFTRKRQEAVAGRTPAIFSPAFYTSRYGYKMCLRVYLNGDGTGRGTHLSLFFVVMKGPNDALLQWPFNQKVTLMLLDHNNREHVIDAFRPDVTSSSFQRPVSDMNIASGCPLFCPVSKMEAKNSYVRDDAIFIKAIVDLTGL | binds | 
2 | OTUD7B (enzyme, UniProt B2RUR8 1-840) MTLDMDAVLSDFVRSTGAEPGLARDLLEGKNWDVSAALSDFEQLRQVHAGNLSPPFSGGSTCPKTPEKGGSDREPTRPSRPILQRQDDVIQEKRLSRGISHASSSIVSLARSHVSSNGGGGGSSEHPLEMPICAFQLPDLTVYKEDFRSFIERDLIEQSMLVALEQAGRLNWWVSMDSTCQRLLPLATTGDGNCLLHAASLGMWGFHDRDLVLRKALYALMEKGVEKEALRRRWRWQQTQQNKESGLVYTEDEWQKEWNELIKLASSEPRMHLGSNGASGGGVESSEEPVYESLEEFHVFVLAHVLKRPIVVVADTMLRDSGGEAFAPIPFGGIYLPLEVPASQCHRSPLVLAYDQAHFSALVSMEQKESAKEQAVIPLTDSEHKLLPLHFAVDPGKGWEWGKDDNDNVRLASIILSLEVKLHLLHSYMNVKWIPLSSDSQAPLAQPESPTASAGDEPRSTPESGESDKESVGSSSLGNEGSRRKEKSKRDREKDKKRADSVANKLGSFGKTLGSKLKKNMGGLMHSKGPKPGGLGSGSGISSGTETLEKKKKNNTLKSWKGGKEEAAGDGPVSEKPPSESVGNGGSKYSQEVMQSLSTMRIAMQGEGKYIFVGTLKMGHRHQYQEEMIQRYLADAEERFLAEQKQKEVERKIMNGGLVSGPPPAKKPEPDGGEDQPSDSPAEPKAMAFSTAYPGGFTIPRPSGGGVHCQEPRRQLAGGPCVGGLPSYATFPRQYPGRPYPHQDNIPALEPGKDGVHRGALLPPQFRVADSYSNGYREPPEPDGWAGAPRGLPPTQTKCKQPNCSFYGHPETNNLCSCCYREELRRREREPGGELLAHRF | binds | binds

From PMC12537900
